Where a sequence shows no end group, the ends are not given. Ends that are not written are not given here.
Columns and labels:
[1] = peptide made by a vendor; details: whole synthesis
[2] = peptide made by a vendor (peptide synthesis; amide resin); details: whole synthesis, reversed-phase analytical HPLC, C18, acetonitrile/0.1% TFA
[3] = reversed-phase analytical HPLC, C18, acetonitrile/0.1% TFA

GGSGGSGGSKGSGSKGSK
final HPLC purity [1, 3]: 95.52%

EGGGGSDYMGWMDF
final HPLC purity ([1]; 254 nm): 95.25%

Ac-CGGSGGSGGSKGSGSKGSK
purity (crude or final not stated) [1, 3]: 95%

GSSGSSGSSGSKGSGSKGSGSK
final HPLC purity [1, 3]: 95.95%

GGSGGSKGSKGSKGSKGSK
final HPLC purity [1, 3]: 97.05%

GSSGSSKGSGKGSGKGSGKGSGK
final HPLC purity [2]: 98.71%

Reference: US10894091B2 (priority 2017, dated 2021)
